Measurements: article PMC7826336
No constants are given. Whether binding was seen depends on the method and setting. Binding can be weak; no strength is given.

Amino acid sequences for entries named in this document (tags omitted). A change or cut given only in a name is not applied to a line headed by its entry.
UniProt P03952: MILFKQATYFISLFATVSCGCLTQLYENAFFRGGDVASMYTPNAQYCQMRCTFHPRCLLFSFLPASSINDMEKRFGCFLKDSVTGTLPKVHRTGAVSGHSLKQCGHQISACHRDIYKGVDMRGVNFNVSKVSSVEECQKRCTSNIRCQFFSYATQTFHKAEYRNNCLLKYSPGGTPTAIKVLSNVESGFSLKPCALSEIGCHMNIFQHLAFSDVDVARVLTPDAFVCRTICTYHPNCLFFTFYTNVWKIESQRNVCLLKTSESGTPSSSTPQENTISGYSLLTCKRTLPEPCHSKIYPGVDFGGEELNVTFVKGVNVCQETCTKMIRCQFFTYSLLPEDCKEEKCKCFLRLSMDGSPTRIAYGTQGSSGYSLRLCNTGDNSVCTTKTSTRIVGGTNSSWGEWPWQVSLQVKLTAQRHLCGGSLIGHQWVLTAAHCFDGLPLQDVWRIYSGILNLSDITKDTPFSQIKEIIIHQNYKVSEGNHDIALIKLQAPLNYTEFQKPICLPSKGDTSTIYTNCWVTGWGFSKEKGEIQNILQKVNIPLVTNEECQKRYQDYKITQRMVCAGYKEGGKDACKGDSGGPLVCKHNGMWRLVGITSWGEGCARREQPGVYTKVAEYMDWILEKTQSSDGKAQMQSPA
UniProt P00740: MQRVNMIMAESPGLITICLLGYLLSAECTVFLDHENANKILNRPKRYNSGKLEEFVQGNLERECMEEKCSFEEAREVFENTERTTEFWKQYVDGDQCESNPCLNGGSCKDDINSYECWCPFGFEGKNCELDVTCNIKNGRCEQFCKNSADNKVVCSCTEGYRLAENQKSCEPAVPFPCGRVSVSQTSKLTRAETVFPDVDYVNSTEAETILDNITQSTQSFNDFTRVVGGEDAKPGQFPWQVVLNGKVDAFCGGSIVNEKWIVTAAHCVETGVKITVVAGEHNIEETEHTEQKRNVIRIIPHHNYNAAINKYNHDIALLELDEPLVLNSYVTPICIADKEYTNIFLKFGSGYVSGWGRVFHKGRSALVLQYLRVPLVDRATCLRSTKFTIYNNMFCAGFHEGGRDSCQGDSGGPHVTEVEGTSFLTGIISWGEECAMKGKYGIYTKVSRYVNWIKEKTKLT

Target: kallikrein (PKa) (UniProt P03952)
Assay: SPR; as a1, but analyte (FIX or FIXa, 250 nM) preincubated in one vessel with 250 nM HK before injection over immobilised PK or PKa; signal compared with HK alone; n = 1; both purified

- binding: binds
Substance: Factor IX (FIX) (from UniProt P00740)
